Test results: PubChem BioAssay AID504834 (National Center for Advancing Translational Sciences (NCATS), 2011)
Among all 320,000 compounds or so, about 22,000 (6.9%) were called active. Inconclusive means that the source gave no clear call. Such entries were picked first, then a sample of the others. Calls come from the whole dose curve; as a rule, active = well fitted inhibition curve with a large enough effect; inconclusive = small, poorly fitted or top-dose-only effect, or another doubt; inactive = no such curve, though single readings can be large or run the other way. Where the call is inconclusive, the potency comes from a doubtful curve fit.

Test: Primary qHTS for delayed death inhibitors of the malarial parasite plastid, 96 hour incubation
Conditions: P. falciparum luciferase reporter growth; series mostly up to 28.7 µM; activity change, negative = inhibition: at the top concentration
Summary of the method: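 96 h incubation, 37 C, 5% CO2, of luciferase-reporter P. falciparum-infected RBCs (2% hematocrit, 0.05% parasitemia final) with test compounds; endpoint luminescence.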
% is set by controls: 0 for no effect and ±100 for the full control effect; potency is the fitted concentration of half-maximal effect.

Row | SMILES | Potency | activity change, negative = inhibition
1 | COc1ccc(C=C2C(=O)c3ccccc3C2=O)cc1O | active: 11.7 µM | 
2 | CC1CCCN(C(=O)CCNC(=O)Cn2cnc3ccccc3c2=O)C1 (centres undefined) |  | inactive: 13.4%
3 | O=C1[C@H]2[C@@H](C(=O)N1c1cc(Cl)cc(Cl)c1)[C@]1(C(=O)Nc3ccccc31)N1CCC[C@@H]21 | inconclusive: 18.5 µM [inhibitor, single point] | 
4 | Cc1ccc(S(=O)Cc2ccc(C(=O)N3CCN(C4CCCCC4)CC3)o2)cc1 (centres undefined) | inconclusive: 18.5 µM [inhibitor, single point] | 
5 | CCOC(=O)N1CCC(NC(=O)c2cc(C(=O)NCc3cccc(Cl)c3)ccc2CO)CC1 | inconclusive: 18.5 µM [inhibitor, single point] | 
6 | CCN(CCCNC(=O)Cn1ncc2c([nH]c3ccc(C)cc32)c1=O)Cc1ccccc1 |  | inactive: 35.9%
7 | O=C(NNc1ncnc2c1cnn2-c1ccc(F)cc1)c1cccs1 | inconclusive: 11.7 µM [inhibitor, single point] | 
8 | O=C(N1CCCCC1)N1CCN(S(=O)(=O)c2ccccc2)CC1 |  | inactive: 11.8%
9 | Cc1cc(C)cc(-c2nnc(SCC(=O)c3ccc4c(c3)OCCO4)o2)c1 | inconclusive: 6.57 µM [inhibitor, partial curve, poor fit] | 
10 | CCCC(=O)c1ccc(N2CCCCCC2)c(F)c1 |  | inactive: -23.5%
11 | COc1cccc(-c2nn(-c3ccccc3)cc2CNC(C)Cn2cncn2)c1 (centres undefined) | active: 10.4 µM | 
12 | Nc1ccc(C(=O)NCCCSc2ccccc2)cc1[N+](=O)[O-] | inconclusive: 18.5 µM [inhibitor, partial curve, poor fit] | 
13 | COc1cccc(C2CC(=O)C3=C(C2)Nc2ccccc2N(C(=O)CCC(=O)O)C3c2ccc(F)cc2)c1 (centres undefined) |  | inactive: 3.76%
14 | COc1ccc(CC(=O)NCc2cccs2)cc1OC | inconclusive: 18.5 µM [inhibitor, single point] | 
15 | Cc1cccc(NC(=O)CSc2nc3ccccc3o2)c1 |  | inactive: 293%
16 | O=C(NC1CC1)c1ccc(CS(=O)c2ccccc2)o1 (centres undefined) | inconclusive: 16.5 µM [inhibitor, single point] | 
17 | CCCS(=O)(=O)N1CCN(S(=O)(=O)c2ccccc2[N+](=O)[O-])CC1 | inconclusive: 4.15 µM [inhibitor, full curve, poor fit] | 
18 | COc1ccc(NCc2ccc([N+](=O)[O-])s2)c(OC)c1 | inconclusive: 13.1 µM [inhibitor, single point] | 
19 | O=C(Nc1ccncc1)c1cccn(Cc2ccccc2)c1=O | inconclusive: 14.7 µM [inhibitor, single point] | 
20 | Cc1ccccc1-c1nnc(NC(=O)c2ccc(N3C(=O)CCC3=O)cc2)s1 | active: 9.28 µM | 
21 | O=C(NCCc1ccc(F)cc1)c1cc(=O)c2ccccc2o1 |  | inactive: -27.1%
22 | CCc1nnc(NC(=O)CC(CN(C)S(=O)(=O)c2ccccc2)c2ccccc2)s1 (centres undefined) | inconclusive: 11.7 µM [inhibitor, single point] | 
23 | COc1cccc(NC(=O)CN(C)C(=O)c2cc3c(s2)CCCCC3)c1 |  | inactive: -1.96%

Of the compounds above, these have fluorine.
Row | SMILES | Potency | activity change, negative = inhibition
7 | O=C(NNc1ncnc2c1cnn2-c1ccc(F)cc1)c1cccs1 | inconclusive: 11.7 µM [inhibitor, single point] | 
10 | CCCC(=O)c1ccc(N2CCCCCC2)c(F)c1 |  | inactive: -23.5%
13 | COc1cccc(C2CC(=O)C3=C(C2)Nc2ccccc2N(C(=O)CCC(=O)O)C3c2ccc(F)cc2)c1 (centres undefined) |  | inactive: 3.76%
21 | O=C(NCCc1ccc(F)cc1)c1cc(=O)c2ccccc2o1 |  | inactive: -27.1%

(cont.)

Row | SMILES | Potency | activity change, negative = inhibition
24 | CC1(C)C(=O)C2(CCCCC2)C(=O)OC1c1cccn1-c1ccc([N+](=O)[O-])cc1 (centres undefined) |  | inactive: 54.6%
25 | O=C(CN(Cc1ccccc1)C1=NCCS1)c1ccc(Cl)cc1 | inconclusive: 13.1 µM [inhibitor, single point] | 
26 | O=C(NCc1ccccn1)c1ccc(CNS(=O)(=O)c2ccc(F)cc2)cc1 |  | inactive: -3.1%
27 | COc1cc2[nH]c(=O)n(Cc3ccc(C(=O)NC4CCN(Cc5ccccc5)CC4)cc3)c(=O)c2cc1OC | inconclusive: 3.7 µM [inhibitor, single point] | 
28 | C=C1CCN([C@H](C(=O)NCc2cc(OC)c(OC)c(OC)c2)C(C)C)S(=O)(=O)c2ccccc21 | inconclusive: 6.57 µM [inhibitor, partial curve, poor fit] | 
29 | Cc1ccc(N2C(=S)NC3c4ccccc4OC2(C)C3C(=O)N(C)C)cc1 (centres undefined) | inconclusive: 18.5 µM [inhibitor, single point] | 
30 | CCc1nnc(NS(=O)(=O)c2ccc(NC(=O)OC)cc2)s1 | inconclusive: 18.5 µM [inhibitor, single point] | 
31 | Nc1nonc1-c1noc(CCCN2C(=O)c3ccccc3C2=O)n1 |  | inactive: 87.3%
32 | COc1ccc(C(=O)/C=C/c2ccc(OC(=O)c3cc(OC)c(OC)c(OC)c3)cc2)cc1 | active: 4.65 µM | 
33 | CN(C)C(CNC(=O)c1cccc(S(=O)(=O)NCc2ccccc2)c1)c1ccccc1 (centres undefined) |  | inactive: -27.8%
34 | COc1ccc(C)cc1-n1nnnc1SCC(=O)N1CCC(C(=O)Nc2nccs2)CC1 | active: 1.65 µM | 
35 | Cc1ccc(NC(=O)CSC2=C(C#N)C(c3ccco3)CC(=O)N2)cc1 (centres undefined) | inconclusive: 0.415 µM [inhibitor, partial curve, poor fit] | 
36 | O=C(NC(CO)Cc1ccc([N+](=O)[O-])cc1)C(Cl)Cl (centres undefined) | inconclusive: 2.94 µM [inhibitor, partial curve] | 
37 | COc1ccc(C(=O)C2CCN(C(=O)c3ccc(F)cc3)CC2)cc1 | inconclusive: 2.94 µM [inhibitor, partial curve] | 
38 | CCC(C)n1c(/C=C/c2ccccc2)nc2ccccc21 (centres undefined) | inconclusive: 0.0029 µM [inhibitor, full curve, poor fit] | 
39 | COc1ccc(S(=O)(=O)N2N=C(c3cccc(NS(C)(=O)=O)c3)CC2c2ccco2)cc1 (centres undefined) | active: 13.1 µM | 
40 | O=C(CSc1nnnn1Cc1ccccc1)c1ccc(F)cc1 |  | inactive: 45.4%
41 | COc1ccc(NC(=O)CSc2ccc3c4c(cccc24)C(=O)c2ccccc2-3)cc1 | inconclusive: 11.7 µM [inhibitor, partial curve, poor fit] | 
42 | CC(=O)Nc1cccc(OCC(O)Cn2cnc3ccccc32)c1 (centres undefined) |  | inactive: 43.9%
43 | Cc1ccc(S(=O)(=O)N2CCC(=O)CC2)cc1 |  | inactive: 15.4%
44 | COc1ccc2c(c1)c(=O)c(C(=O)c1ccccc1)cn2Cc1ccccc1 | inconclusive: 18.5 µM [inhibitor, single point] | 
45 | COc1ccc(CC(=O)Nc2c3c(nn2-c2cccc(Cl)c2)CS(=O)C3)cc1 (centres undefined) | active: 1.47 µM | 
46 | O=C(/C=C/c1ccc(Cl)cc1)NCc1ccco1 | inconclusive: 0.0041 µM [inhibitor, full curve, poor fit] | 

Row | SMILES | Potency | activity change, negative = inhibition
47 | CCCCN(CC(=O)Nc1cccc(S(=O)(=O)N2CCCC2)c1)Cc1nc2ccccc2c(=O)[nH]1 | active: 5.86 µM | 
48 | Cc1ccc(OCC(=O)N2CCc3ccccc32)cc1 |  | inactive: 99.7%
49 | COc1ccc(CN2CCN(C(=O)Cn3nc(C(=O)O)c4ccccc4c3=O)CC2)cc1F |  | inactive: 13.6%
50 | C=CCn1cnc2c(nnn2Cc2ccc(F)cc2)c1=O | inconclusive: 1.47 µM [inhibitor, partial curve, poor fit] | 
51 | OC1(Cc2cc(-c3ccccc3)no2)CCN(CCCc2ccccc2)CC1 | active: 3.29 µM | 
52 | O=C(COc1cccc2ccccc12)NNC(=O)c1cnccn1 | inconclusive: 11.7 µM [inhibitor, single point] | 
53 | CCCc1cc(=O)oc2cc(C)cc(OC(C)C(=O)NCC(O)c3ccccc3)c12 (centres undefined) | inconclusive: 0.415 µM [inhibitor, full curve, poor fit] | 
54 | COc1ccc(C2C(C#N)=C(N)OC3=C2C(=O)CC(C)(C)C3)cc1Cn1nc(C)c([N+](=O)[O-])c1C (centres undefined) |  | inactive: -27.8%
55 | Cc1ccc(N(CC(=O)N2CCc3ccccc3C2)S(C)(=O)=O)cc1 | inconclusive: 10.4 µM [inhibitor, single point] | 
56 | CC1C/C(=N/NC(=O)c2cccc(F)c2)c2ccc(O)cc2C1 (centres undefined) | inconclusive: 4.65 µM [inhibitor, partial curve] | 
57 | Cc1ccc(C(=O)N2CC(=O)Nc3ccc(F)cc3C2c2ccccc2)cc1[N+](=O)[O-] (centres undefined) | inconclusive: 8.28 µM [inhibitor, partial curve, poor fit] | 
58 | O=C(CC1C(=O)NCCN1Cc1c(F)cccc1Cl)NC1CCCC1 (centres undefined) | inconclusive: 13.1 µM [inhibitor, partial curve] | 
59 | CCOC(=O)C1(Cc2ccccc2Cl)CCN(S(C)(=O)=O)CC1 | inconclusive: 4.15 µM [inhibitor, partial curve, poor fit] | 
60 | Cc1c(/C=N/NC(=O)c2ccccc2O)c2ccccn2c1C(=O)c1ccc(F)cc1 | inconclusive: 10.4 µM [inhibitor, partial curve, poor fit] | 
61 | COc1ccc(C(CNC(=O)Cc2ccc(-c3ccccc3)cc2)N(C)C)cc1 (centres undefined) | inconclusive: 10.4 µM [inhibitor, partial curve, poor fit] | 
62 | CCC(c1nnc(SCC(=O)NC2CCCCC2)n1Cc1ccccc1)N(C)C (centres undefined) |  | inactive: -15.6%
63 | Cc1c(/C=N/NC(=O)c2cc(C(C)(C)C)[nH]n2)c2ccccc2n1C | inconclusive: 10.4 µM [inhibitor, single point] | 
64 | CC(=O)O[C@@]12CO[C@@H]1C[C@H](O)[C@@]1(C)C(=O)[C@H](O)C3=C(C)[C@@H](O)C[C@@](O)([C@@H](OC(=O)c4ccccc4)C12)C3(C)C (some centres undefined) | inconclusive: 3.7 µM [inhibitor, full curve] | 
65 | CCOC(=O)N1CCN(C(=O)c2ccccc2SCC(=O)NCC2CCCCC2)CC1 | inconclusive: 18.5 µM [inhibitor, single point] | 
66 | CCOc1ccc2nc(N(CCCN(C)C)C(=O)c3ccc(S(=O)(=O)N4CCCC4)cc3)sc2c1 | inconclusive: 18.5 µM [inhibitor, single point] | 
67 | O=[N+]([O-])c1ccc(NC(=S)N2CCOCC2)cc1 | inconclusive: 18.5 µM [inhibitor, single point] | 
68 | Cc1cc(Br)ccc1NC(=O)CCSc1ccccc1 |  | inactive: 34.4%
69 | CC1C(=O)N2CCCc3cc(S(=O)(=O)N4CCN(c5cccc(Cl)c5)CC4)cc1c32 (centres undefined) | inconclusive: 9.28 µM [inhibitor, partial curve] | 

Entries shown so far that contain a COOH group, in the order listed:
Row | SMILES | Potency | activity change, negative = inhibition
13 | COc1cccc(C2CC(=O)C3=C(C2)Nc2ccccc2N(C(=O)CCC(=O)O)C3c2ccc(F)cc2)c1 (centres undefined) |  | inactive: 3.76%
49 | COc1ccc(CN2CCN(C(=O)Cn3nc(C(=O)O)c4ccccc4c3=O)CC2)cc1F |  | inactive: 13.6%
